Laboratory results published in patent US12021195B2, “Asymmetric electrolyte salts and batteries incorporating such salts” (OHIO STATE INNOVATION FOUNDATION, priority 2019, dated 2024).

Tests used:
[1] = Potassium-oxygen battery cycling; conditions: no K+-Nafion membrane
[2] = Al anodic dissolution, cyclic voltammetry of Li∥Al coin cells; conditions: after Li∥Al coin cell testing
[3] = vs. Li+/Li, cited from earlier work

COCCC[N-]S(=O)(=O)C(F)(F)F.[K+] [KMPSA]
cycle life of potassium-oxygen battery ([1]; 0.2× KMPSA/DME): about 10 cycles
cycle life of potassium-oxygen battery ([1]; 0.4× KMPSA/DME): over 60 cycles

O=S(=O)([N-]S(=O)(=O)C(F)(F)F)C(F)(F)F.[Li+] [LiTFSI, lithium bis(trifluoromethanesulfonyl)imide, reference compound]
pitting of the Al electrode, optical microscope [2]: significant amount of aluminum pits
potential above which aluminum undergoes anodic dissolution [3]: above 3.5 V

COCCC[N-]S(=O)(=O)C(F)(F)F.[Li+] [LiMPSA]
pitting of the Al electrode, optical microscope [2]: negligible pitting

O=S(=O)([O-])C(F)(F)F.[Li+] [LiOTf, lithium trifluoromethanesulfonate]
potential above which significant pitting develops ([3]; carbonate solvent): above 3.0 V
potential above which aluminum undergoes anodic dissolution [3]: above 2.7 V

O=S(=O)([N-]CC(F)(F)C(F)(F)F)C(F)(F)F.[Li+] [LiFPSA]
pitting of the Al electrode, optical microscope [2]: Some pits
